# In PubChem BioAssay AID2685 (National Center for Advancing Translational Sciences (NCATS), 2010):
# Some of the results follow. These are further read-outs of the screen, such as a control signal, another cell line or another target. No call is given for them. Compounds called inactive in the main read-out are mostly missing here. The note in brackets gives the kind of curve behind each potency; many fits are weak.
# Experiment: qHTS Assay for Lipid Storage Modulators in Drosophila S3 Cells;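 on cell number change: cells counted by Cell Tracker Red CMTPX staining in the red channel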
# Conditions: BODIPY lipid droplet fluorescence, 18-24 h; for cell number change: measured here: cell count max response, cells fed with added oleic acid
# Summary of the method: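 Drosophila S3 cells loaded with oleic acid (400 uM, as added) and compounds at several concentrations; lipid droplets imaged by 488-nm laser-scanning cytometry, 500–530 nm intensity and object ratio to cell channel. Percent activity normalized to 20 uM Triacsin C.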
# [1] = measured here: lipid fluorescence (Fed channel) AC50, cells fed with added oleic acid
# [2] = measured here: cell number channel AC50, cells fed with added oleic acid
Structure (SMILES),cell number change,AC50 [1],AC50 [2]
CC(=O)c1cccc(S(=O)(=O)N2CCN(c3nc4cc(C)cc(C)c4cc3C#N)CC2)c1,2.1%,"0.103 µM [rising, full curve, poor fit]",–
COc1ccccc1C1(O)CCN(CC(=O)Nc2c(C)nn(C)c2C)CC1,12.6%,"7.31 µM [rising, full curve, poor fit]",–
Cc1ccc(C(=O)N2CCSCC2)cc1,0.533%,"0.651 µM [falling, full curve]",–
Cn1c(C(=O)N2CCOCC2)cc2c(=O)n3ccccc3nc21,-4.86%,–,–
COc1ccc(N=C2C(=O)Nc3c(C)cccc32)cc1,25.6%,"0.82 µM [falling, single point]",–
COc1ccc(OC)c(-c2csc(NC(=O)CN3C(=O)NC4(CCCC4)C3=O)n2)c1,-18%,–,–
COC(=O)c1c(-c2ccccc2)csc1N1C(=O)Nc2ccccc2N1O,-4.09%,"1.84 µM [falling, single point]",–
CCN1CCN(CCNC(=O)CSCc2nc(-c3ccc(OC)c(OC)c3)oc2C)CC1,0.799%,"18.4 µM [rising, partial curve]",–
O=C(COC(=O)c1ccccc1O)Nc1ccc(S(=O)(=O)N2CCCCC2)cc1,–,"0.13 µM [falling, full curve, poor fit]","0.092 µM [falling, full curve, poor fit]"
C=CCN1C=CC(=CC=C(C#N)C#N)C=C1,-42.8%,"29.1 µM [falling, single point]","7.31 µM [falling, partial curve]"
CC(=O)c1ccc2c(c1)CC(C)C(=O)N2C (centres undefined),3.83%,"0.13 µM [falling, full curve, poor fit]",–
CSc1ccc(CCNS(=O)(=O)c2ccc3c(c2)C(C)(C)C(=O)N3C)cc1,1.9%,"29.1 µM [rising, single point]",–
COc1ccc(NC(=O)Cc2coc3cc(C)ccc23)cn1,-17.9%,"0.651 µM [falling, partial curve, poor fit]",–
CCC(=O)N1CCc2cc(S(=O)(=O)N3CCCCC3CC)ccc21 (centres undefined),-11.3%,–,"6.51 µM [falling, single point]"
CCCCOc1ccc(N=Nc2ccc(N)nc2N)cn1,-32.5%,"1.84 µM [rising, full curve, poor fit]","16.4 µM [falling, single point]"
COc1cccc(C(=O)NC(C)CCc2ccccc2)c1 (centres undefined),18.1%,"29.1 µM [falling, single point]",–
O=c1c2c(c(-c3ccccc3)nn1Cc1ccccc1)CCCC2,14.2%,"1.46 µM [rising, partial curve]","1.46 µM [rising, partial curve]"
Cc1ccc(NC(=O)CN2CCCC2)cc1,2.05%,"4.61 µM [rising, single point]",–
CCCCC(=O)Nc1nnc(S(=O)(=O)N(C)Cc2ccco2)s1,–,"29.1 µM [rising, single point]",–
COC(=O)c1ccc(NS(=O)(=O)c2ccccc2)o1,-9.63%,"2.59 µM [falling, single point]",–

Structure (SMILES),cell number change,AC50 [1],AC50 [2]
Cc1cccc(OCc2nnc(SCC(=O)c3c(N)n(C4CC4)c(=O)[nH]c3=O)o2)c1,-15.5%,–,–
O=C(CSc1nc2nc(-c3cccs3)cc(C(F)(F)F)c2c(=O)[nH]1)C(F)(F)F,-17.4%,"32.6 µM [falling, single point]",–
Cc1cc(/C=N/NC(=O)c2cccc(F)c2)c(C)n1-c1ccccc1,80.1%,–,"29.1 µM [rising, single point]"
Cc1c(NC(=O)COC(=O)c2ccc(F)c(S(=O)(=O)N3CCOCC3)c2)c(=O)n(-c2ccccc2)n1C,–,"4.61 µM [falling, partial curve]",–
CCOC(=O)N1CCN(Cc2nc3cc([N+](=O)[O-])ccc3n2C)CC1,–,"0.13 µM [falling, full curve, poor fit]",–
CCCCN(C(=O)c1ccc(S(=O)(=O)N(C)C)cc1)c1nc2ccccc2s1,1.83%,"2.06 µM [rising, full curve, poor fit]",–
O=C(Nc1ccc(N2C(=O)C3C4C=CC(C4)C3C2=O)cc1)Nc1cccnc1 (centres undefined),–,"0.461 µM [falling, single point]",–
c1ccc(Nc2nc3ccccc3o2)cc1,–,–,"4.61 µM [falling, single point]"
O=C(CSc1nn(-c2ccc(F)cc2)c(=S)s1)NCC1CCCO1 (centres undefined),-42.3%,"18.4 µM [falling, partial curve, poor fit]","32.6 µM [falling, single point]"
CC(CCc1ccccc1)NC(=O)[C@@H]1Cc2ccccc2CN1 (some centres undefined),-9.22%,–,–
O=C(O)CC1c2ccccc2C=Cc2ccccc21,-5.79%,"8.2 µM [rising, partial curve]",–
CCS(=O)(=O)N1Cc2ccccc2CC1C(=O)N(C)Cc1ccc(OC)cc1OC (centres undefined),1.25%,"0.411 µM [falling, partial curve]",–
COc1cccc(-c2nc(N3CCC(C)CC3)c3ccccc3n2)c1O,-24.6%,"29.1 µM [falling, single point]",–
Cc1cc(OCCn2nc(C(=O)O)c3ccccc3c2=O)ccc1C(C)C,-1.21%,"23.1 µM [falling, partial curve]",–
O=C(COC(=O)c1ccco1)NCc1ccc(F)cc1,-20.8%,"23.1 µM [falling, single point]",–
COc1ccc([C@H]2CC(=O)C=C(c3cccc(C(C)C)c3)C2)cc1OC,-3.62%,"10.3 µM [falling, single point]",–
CCCCn1c(N)c(N(CCC(C)C)C(=O)c2ccc3c(c2)OCO3)c(=O)[nH]c1=O,-10.3%,–,–
C=CCn1c(C)cc(-c2csc(NCC)n2)c1C,-30.5%,–,–
Cc1cccc(CCNS(=O)(=O)c2ccc(S(=O)(=O)NC3CCCC3)cc2)c1,-12.5%,"4.11 µM [rising, single point]",–
C[C@H](NC(=O)c1nc[nH]c1C(=O)NC1CCNCC1)C(=O)OC(C)(C)C,6.34%,"29.1 µM [rising, single point]",–

Structure (SMILES),cell number change,AC50 [1],AC50 [2]
O=C(c1ccco1)N1CCN(C(=O)c2cnn3c2NC(c2cccs2)CC3C(F)(F)F)CC1 (centres undefined),–,"23.1 µM [rising, partial curve]",–
COCC(=O)Nc1c(C(=O)N2CCCC2)oc2ccccc12,24.1%,"18.4 µM [rising, single point]",–
Cc1cccc(Nc2ccc3nonc3c2[N+](=O)[O-])c1C,42.3%,–,"0.116 µM [rising, full curve]"
CC(C)N(Cc1nccn1C)C(=O)c1ccc2oc(Cc3ccccc3)nc2c1,-4.69%,"0.146 µM [falling, full curve]",–
Cc1ccc2nc(/C(C#N)=C/c3ccc(-c4cccc([N+](=O)[O-])c4)o3)[nH]c2c1,-15.5%,"4.61 µM [falling, full curve]","6.51 µM [falling, single point]"
Cc1ccccc1S(=O)(=O)Cc1ccc(C(=O)NC(C)c2ccc3c(c2)OCCO3)o1 (centres undefined),31.4%,"0.82 µM [rising, full curve, poor fit]",–
Cc1nn(C)c(C(=O)N/N=C/c2ccc(Br)cc2)c1Cl,9.49%,"6.51 µM [falling, partial curve]",–
CCOc1cc(N2CCOCC2)c(OCC)cc1NC(=O)CN1C(=O)C2CC=CCC2C1=O (centres undefined),20.4%,"0.184 µM [rising, full curve, poor fit]","0.164 µM [rising, full curve, poor fit]"
CC(C)[C@H](NC(=O)N1CC(=O)Nc2ccccc21)C(=O)N[C@H](Cc1c[nH]c2ccccc12)C(=O)O,8.13%,–,"0.146 µM [rising, full curve, poor fit]"
O=C(O)c1cccc(CSc2n[nH]c(-c3ccc(Cl)cc3Cl)n2)c1,26.1%,"32.6 µM [rising, single point]",–
CCOc1ccc(NC(=O)C(C)NC(=O)c2ccccc2Cl)cc1S(=O)(=O)N1CCCC1 (centres undefined),11.6%,"16.4 µM [rising, partial curve]",–
Cc1ccc(Nc2c(-c3ccccc3O)nc3cnccn23)cc1,-9.04%,"5.17 µM [falling, single point]","1.84 µM [falling, single point]"
Cc1cccc2c(N=O)c(O)n(CCc3ccccc3)c12,-14.2%,"29.1 µM [falling, single point]",–
O=c1[nH]c(C2CCCN(S(=O)(=O)c3ccccc3)C2)nc2c1nnn2Cc1ccccc1 (centres undefined),6.19%,"1.84 µM [rising, partial curve]",–
Cc1c(Cl)cccc1NC(=S)NCCCN(C)C,-15%,–,–
COc1cc(NC(=O)CCCl)cc(-n2cnnn2)c1,-104%,"23.1 µM [rising, single point]","23.1 µM [falling, single point]"
CC(C)[C@H](NC(=O)c1ccco1)C(=O)OCC(=O)NC12CC3CC(CC(C3)C1)C2,7.87%,–,–
CC(=O)Nc1ccc(S(=O)(=O)NC2Cc3ccccc3C2)cc1,-15.3%,–,"0.411 µM [falling, full curve, poor fit]"
O=C(CSc1ncn[nH]1)N1CCN(c2nnc(-c3ccccc3)c3ccccc23)CC1,–,"4.11 µM [rising, single point]","1.64 µM [rising, partial curve, poor fit]"
CCC(C)Sc1nc2c(c(=O)[nH]c(=O)n2C)n1C (centres undefined),9.91%,"0.13 µM [falling, full curve, poor fit]",–

# Shown with tabs: entries from further up
Structure (SMILES)	cell number change	AC50 [1]	AC50 [2]
Cc1ccccc1S(=O)(=O)Cc1ccc(C(=O)NC(C)c2ccc3c(c2)OCCO3)o1 (centres undefined)	31.4%	0.82 µM [rising, full curve, poor fit]	–
Cc1ccc(Nc2c(-c3ccccc3O)nc3cnccn23)cc1	-9.04%	5.17 µM [falling, single point]	1.84 µM [falling, single point]
COc1cc(NC(=O)CCCl)cc(-n2cnnn2)c1	-104%	23.1 µM [rising, single point]	23.1 µM [falling, single point]
